{
  "source": "PubChem BioAssay AID330",
  "about": "(DTP/NCI, 2004)",
  "test_system": "P388 leukemia ip, CD2F1 mice, survival T/C",
  "assay": "NCI In Vivo Anticancer Drug Screen. Data for tumor model P388 Leukemia (intraperitoneal) in CD2F1 (CDF1) mice",
  "conditions": "T/C endpoint: median survival time, vehicle: Klucel (hydroxypropylcellulose) (HPC), higher T/C = longer survival",
  "key": {"[1]": {"conditions": "dose: 50.0 mg/kg/injection, schedule: Q04DX002 (ip)"}, "[2]": {"conditions": "dose: 50.0 mg/kg/injection, schedule: Q04DX003 (ip)"}, "[3]": {"conditions": "dose: 100.0 mg/kg/injection, schedule: Q01DX009 (ip)"}, "[4]": {"conditions": "dose: 100.0 mg/kg/injection, schedule: Q04DX003 (ip)"}, "[5]": {"conditions": "dose: 200.0 mg/kg/injection, schedule: Q01DX001 (ip)"}, "[6]": {"conditions": "dose: 200.0 mg/kg/injection, schedule: Q01DX005 (ip)"}, "[7]": {"conditions": "dose: 200.0 mg/kg/injection, schedule: Q04DX003 (ip)"}, "[8]": {"conditions": "dose: 400.0 mg/kg/injection, schedule: Q01DX001 (ip)"}, "[9]": {"conditions": "dose: 400.0 mg/kg/injection, schedule: Q01DX005 (ip)"}, "[10]": {"conditions": "dose: 400.0 mg/kg/injection, schedule: Q01DX009 (ip)"}, "[11]": {"conditions": "dose: 400.0 mg/kg/injection, schedule: Q04DX002 (ip)"}, "[12]": {"conditions": "dose: 400.0 mg/kg/injection, schedule: Q04DX003 (ip)"}},
  "note": "The list is a part of this screen's results and no random one: it gathers tests that were run many times, whatever their T/C, doses with no T/C, and many T/C values between a quarter and a half above the control. Further doses and runs are listed elsewhere. T/C gives the treated animals as a percentage of the vehicle group. Some entries give survivors of the animals treated and no T/C: the source holds a T/C of zero for them, seemingly a mark for toxic or unscored doses. Some survivor counts are full or nearly so, which does not show that the dose was tolerated: survival well below the control is almost never listed, so the zero probably covers shortened survival too. Counts of survivors are from the toxicity check (mostly the fifth day) where no day follows; animals may have died later. Schedule codes are those of the source, taken here to give the interval after Q, in days (D) or hours (H), and the number of doses after X. Some entries were tested several times; the values are given in rising order. Where survival is the endpoint, the PubChem record calls one and a half times the control and up active, and a quarter to a half above the control has no call in these data; cut-offs in other NCI protocols can differ. Some T/C values carry the count of animals alive at the toxicity check (mostly the fifth day); where none is given, no animal had died by that day. Additions like (4×) give the number of equal values in this list.",
  "data": [
    {"smiles": "CC(=O)[C@H]1CC[C@H]2[C@@H]3C[C@H](C)C4=CC(=O)CC[C@]4(C)[C@H]3C(=O)C[C@]12C", "values": [
      {"measurement": "T/C", "setting": "dose: 50.0 mg/kg/injection, schedule: Q01DX001 (ip)", "result": "89, 90, 94 [5 of 6 alive], 95 (2×), 96, 97, 98 (2×), 100 (7×), 101 (3×), 102 (2×), 103, 104, 105 (2×), 109 [2 of 3 alive], 110, 111 (2×), 113, 120, 122 % of control"},
      {"measurement": "T/C", "setting": "dose: 50.0 mg/kg/injection, schedule: Q01DX005 (ip)", "result": "87, 90, 94 (2×), 95, 96, 97 (5×), 98, 99, 100 (4×), 102 (2×), 103, 105 (3×), 106, 107 (3×), 108, 110, 110 [5 of 6 alive], 111 (3×), 112, 113, 114 % of control"},
      {"measurement": "T/C", "setting": "dose: 50.0 mg/kg/injection, schedule: Q01DX009 (ip)", "result": "87, 89 (2×), 94 (2×), 95 (3×), 96, 97, 98 (2×), 99 (2×), 100 (3×), 101 (6×), 102 (2×), 103 (2×), 104, 105, 108 (2×), 110, 111, 113, 117 % of control"},
      {"measurement": "T/C", "setting": "[1]", "result": "93, 94, 95 (3×), 97 (2×), 99 (3×), 100 (8×), 102, 103 (2×), 104 (3×), 104 [2 of 3 alive], 105 (3×), 107 (2×), 108, 109 (2×), 112 % of control"},
      {"measurement": "survivor count", "setting": "[1]", "result": "6 of 6"},
      {"measurement": "T/C", "setting": "[2]", "result": "88 [2 of 3 alive], 91, 94 [2 of 3 alive], 95 (2×), 96 (2×), 99, 100 (8×), 101 (2×), 102 (2×), 103 (2×), 104 (2×), 104 [2 of 3 alive], 105, 106 (4×), 109, 111, 112, 115 % of control"},
      {"measurement": "survivor count", "setting": "[2]", "result": "3 of 3 and 6 of 6"},
      {"measurement": "T/C", "setting": "dose: 100.0 mg/kg/injection, schedule: Q01DX001 (ip)", "result": "87, 89, 93, 94, 95, 97 (2×), 98, 99 (2×), 100 (3×), 101 (3×), 102 (3×), 103 (2×), 104 (2×), 106 (2×), 109, 110 (2×), 114, 115, 118, 122 % of control"},
      {"measurement": "T/C", "setting": "dose: 100.0 mg/kg/injection, schedule: Q01DX005 (ip)", "result": "89, 93 [5 of 6 alive], 94 (2×), 95, 96, 97 (2×), 97 [5 of 6 alive], 98 (4×), 99, 100 (2×), 101 (5×), 102 (3×), 104, 105 (2×), 106, 106 [5 of 6 alive], 107 (4×), 108 (2×), 109 % of control"},
      {"measurement": "T/C", "setting": "[3]", "result": "86 [5 of 6 alive], 91 (2×), 93, 93 [5 of 6 alive], 94 (3×), 95, 97, 98, 98 [5 of 6 alive], 99, 102, 103 (3×), 104 (3×), 105, 107, 109, 111 (2×), 112, 113, 114, 115, 117 [5 of 6 alive], 122, 132 % of control"},
      {"measurement": "survivor count", "setting": "[3]", "result": "3 of 3"},
      {"measurement": "T/C", "setting": "dose: 100.0 mg/kg/injection, schedule: Q04DX002 (ip)", "result": "87, 90 (2×), 92 (2×), 93, 94, 95, 96, 97, 98, 99 [5 of 6 alive], 100 (7×), 101 (2×), 102, 103 (2×), 104, 106 (4×), 108, 111 [2 of 3 alive], 112, 115, 116, 117 % of control"},
      {"measurement": "T/C", "setting": "[4]", "result": "87, 88, 96 (2×), 98, 99 (3×), 100 (5×), 101, 102 (3×), 103 (2×), 104 (4×), 105 (2×), 106, 107, 108, 109 (2×), 110 (2×), 113 % of control (2×)"},
      {"measurement": "survivor count", "setting": "[4]", "result": "2 of 3, 3 of 3, 6 of 6"},
      {"measurement": "T/C", "setting": "[5]", "result": "90, 95 (2×), 96, 99, 100 (10×), 101 (5×), 102, 103, 104 (2×), 105 (2×), 107 (2×), 111, 120, 137 % of control"},
      {"measurement": "survivor count", "setting": "[5]", "result": "5 of 6"},
      {"measurement": "T/C", "setting": "[6]", "result": "89, 90, 90 [5 of 6 alive], 91, 92, 93 (4×), 96 (2×), 97 (3×), 99 (2×), 100 (4×), 101, 102 (3×), 102 [5 of 6 alive], 104 (3×), 105 (2×), 106, 107, 112, 117, 121 % of control"},
      {"measurement": "survivor count", "setting": "[6]", "result": "2 of 3"},
      {"measurement": "T/C", "setting": "dose: 200.0 mg/kg/injection, schedule: Q01DX009 (ip)", "result": "89, 90, 93 (2×), 95 (2×), 97, 98 (2×), 99, 100 (2×), 102 (4×), 103 (4×), 104, 105 (2×), 107, 108, 109 (2×), 110, 111, 112, 118, 119, 122, 128 % of control (2×)"},
      {"measurement": "T/C", "setting": "dose: 200.0 mg/kg/injection, schedule: Q04DX002 (ip)", "result": "90, 91, 92, 93, 95, 97 (2×), 98 (2×), 99, 100 (5×), 102 (3×), 103 (3×), 104 (2×), 105 (5×), 107, 110, 111, 113 (2×), 114, 122 % of control"},
      {"measurement": "T/C", "setting": "[7]", "result": "88 (2×), 94 (2×), 95, 96, 98, 99 (2×), 100 (6×), 101 [2 of 3 alive], 101 [5 of 6 alive], 102, 103 (2×), 104 (3×), 105 (2×), 106 (3×), 107 (2×), 109 (2×), 110, 113 % of control"},
      {"measurement": "survivor count", "setting": "[7]", "result": "4 of 6, 3 of 3, 6 of 6"},
      {"measurement": "T/C", "setting": "[8]", "result": "87, 94, 97 [5 of 6 alive], 100 (10×), 100 [5 of 6 alive], 101, 101 [5 of 6 alive], 102 (2×), 102 [4 of 6 alive], 103, 104 (2×), 105 (3×), 106 (2×), 107 (2×), 111, 120 % of control [2 of 3 alive]"},
      {"measurement": "survivor count", "setting": "[8]", "result": "0 of 3"},
      {"measurement": "T/C", "setting": "[9]", "result": "88, 89, 92, 93, 95, 95 [5 of 6 alive], 97, 99, 100, 100 [4 of 6 alive], 101 (2×), 102, 107, 107 [2 of 3 alive], 107 [5 of 6 alive], 108, 109, 110 [2 of 3 alive], 111, 111 [5 of 6 alive], 112 (2×), 117, 120, 129 % of control"},
      {"measurement": "survivor count", "setting": "[9]", "result": "0 of 3, 0 of 6, 1 of 6, 1 of 3, 3 of 6, 3 of 3"},
      {"measurement": "T/C", "setting": "[10]", "result": "90, 94 [5 of 6 alive], 95 [2 of 3 alive], 98, 98 [5 of 6 alive], 99 (2×), 100, 101, 102, 103 (2×), 104 [5 of 6 alive], 105, 106, 107 [5 of 6 alive], 108, 108 [2 of 3 alive], 108 [4 of 6 alive], 109, 113, 114 [2 of 3 alive], 117 [2 of 3 alive], 119, 122 % of control"},
      {"measurement": "survivor count", "setting": "[10]", "result": "0 of 3, 0 of 6, 1 of 3, 2 of 6, 3 of 6, 3 of 3, 6 of 6"},
      {"measurement": "T/C", "setting": "[11]", "result": "91 (2×), 93 (2×), 95, 99 (2×), 100, 100 [4 of 6 alive], 101 (3×), 102 (3×), 102 [2 of 3 alive], 102 [4 of 6 alive], 104 (2×), 105, 106, 106 [5 of 6 alive], 107 [2 of 3 alive], 108, 108 [4 of 6 alive], 109, 109 [5 of 6 alive], 110, 114 % of control"},
      {"measurement": "survivor count", "setting": "[11]", "result": "0 of 3, 0 of 6, 3 of 6, 2 of 3"},
      {"measurement": "T/C", "setting": "[12]", "result": "87, 88 (2×), 89, 91 [2 of 3 alive], 94, 99, 100 (6×), 101, 101 [5 of 6 alive], 102 (2×), 103, 103 [5 of 6 alive], 104, 106, 107 (2×), 108 (2×), 109 (3×), 111, 112, 116 (2×), 146 % of control"},
      {"measurement": "survivor count", "setting": "[12]", "result": "1 of 3, 3 of 3, 6 of 6"}
    ]}
  ]
}
